Reference: patent publication US20160031945A1 (INDIANA UNIVERSITY RESEARCH AND TECHNOLOGY, published 2016)
Results are given in words; binding and its absence hold for the method and conditions named. Some entries that bind do so weakly or less than the wild type.

Assays:
[1] = target: N-type voltage-gated calcium channel CaV2.2 (rat) (UniProt Q02294); experiment: far-Western on CRMP-2 15-mer peptide array overlaid with rat brain synaptosomes
[2] = target: N-type voltage-gated calcium channel CaV2.2 (rat) (UniProt Q02294); experiment: far-Western on CRMP-2 15-mer peptide array overlaid with spinal cord lysates

ARSRLAELRGVPRGL [CBD3 peptide (Ca2+ channel binding domain 3 peptide of CRMP-2)]
binding [1]: binds
binding [2]: binds
